According to PubChem BioAssay AID330 (DTP/NCI, 2004):
The list does not hold the whole screen: it is rich in T/C values a quarter to a half above the control, in often repeated tests (any T/C) and in doses without a T/C. Further doses and runs are listed elsewhere. T/C is the treated group as % of the vehicle group. Some entries give survivors of the animals treated and no T/C: the source holds a T/C of zero for them, seemingly a mark for toxic or unscored doses. Some survivor counts are full or nearly so, which does not show that the dose was tolerated: survival well below the control is almost never listed, so the zero probably covers shortened survival too. Counts of survivors are from the toxicity check (mostly the fifth day) where no day follows; animals may have died later. Schedules are NCI's codes, taken here to give the interval after Q, in days (D) or hours (H), and the number of doses after X. Where survival is the endpoint, the PubChem record calls one and a half times the control and up active, and a quarter to a half above the control has no call in these data; cut-offs in other NCI protocols can differ.

System: P388 leukemia ip, CD2F1 mice, survival T/C
Test: NCI In Vivo Anticancer Drug Screen. Data for tumor model P388 Leukemia (intraperitoneal) in CD2F1 (CDF1) mice
Conditions: T/C endpoint: median survival time, higher T/C = longer survival
[1] = dose: 50.0 mg/kg/injection, schedule: Q01DX009 (ip), vehicle: saline with Tween-80
[2] = dose: 100.0 mg/kg/injection, schedule: Q01DX009 (ip), vehicle: saline with Tween-80
[3] = dose: 200.0 mg/kg/injection, schedule: Q01DX009 (ip), vehicle: saline with Tween-80
[4] = dose: 200.0 mg/kg/injection, schedule: Q01DX005 (ip), vehicle: saline
[5] = dose: 100.0 mg/kg/injection, schedule: Q01DX005 (ip), vehicle: saline with Tween-80
[6] = dose: 200.0 mg/kg/injection, schedule: Q01DX005 (ip), vehicle: saline with Tween-80

## Cc1ccc(CC2C=CCN2)cc1 (stereo not drawn)
dose: 400.0 mg/kg/injection, schedule: Q01DX001 (ip), vehicle: distilled water + alcohol
  survivor count: 2 of 6

## COC(=O)C1Cc2[nH]cnc2C(c2c(CO)cnc(C)c2O)N1 (stereo not drawn)
dose: 200.0 mg/kg/injection, schedule: Q01DX005 (ip), vehicle: Klucel (hydroxypropylcellulose) (HPC)
  survivor count: 3 of 6

## CN(C)CCCNc1ccc(O)c2sc3ccccc3c(=O)c12
[1]
  survivor count: 6 of 6
[2]
  survivor count: 4 of 6
[3]
  survivor count: 0 of 6

## CCCCN(CCCC)C(=N)c1ccnc2ccccc12
dose: 50.0 mg/kg/injection, schedule: Q01DX005 (ip), vehicle: saline
  survivor count: 2 of 5
dose: 100.0 mg/kg/injection, schedule: Q01DX005 (ip), vehicle: saline
  survivor count: 0 of 5
[4]
  survivor count: 0 of 5

## CC(O)C1CCNCC1 (stereo not drawn)
[4]
  survivor count: 2 of 6

## CC[C@@]1(O)C(=O)OCc2c1cc1n(c2=O)Cc2cc3c(N)cccc3nc2-1
dose: 0.06 mg/kg/injection, schedule: Q01DX005 (ip), vehicle: saline with Tween-80
  T/C: 140 % of control
dose: 1.0 mg/kg/injection, schedule: Q01DX005 (ip), vehicle: saline with Tween-80
  survivor count: 6 of 6
dose: 2.0 mg/kg/injection, schedule: Q01DX005 (ip), vehicle: saline with Tween-80
  survivor count: 6 of 6
dose: 4.0 mg/kg/injection, schedule: Q01DX005 (ip), vehicle: saline with Tween-80
  survivor count: 6 of 6

## COc1cc(C2(C3C(CO)OC(=O)C3Cc3ccc4c(c3)OCO4)SCCCS2)cc(OC)c1OC (stereo not drawn)
dose: 100.0 mg/kg/injection, schedule: Q04DX002 (ip), vehicle: saline with Tween-80
  survivor count: 6 of 6

## NC(N)=NC(N)=Nc1ccc2c(Cl)c(Cl)ccc2c1
dose: 50.0 mg/kg/injection, schedule: Q04DX003 (ip), vehicle: saline with Tween-80
  T/C: 125 % of control
dose: 75.0 mg/kg/injection, schedule: Q04DX003 (ip), vehicle: saline with Tween-80
  survivor count: 3 of 6
[5]
  survivor count: 0 of 6
dose: 100.0 mg/kg/injection, schedule: Q04DX003 (ip), vehicle: saline with Tween-80
  survivor count: 0 of 6
[6]
  survivor count: 0 of 6

## C[n+]1c(-c2ccccc2)c2ccccn2c1Sc1n2ccccc2c(-c2ccccc2)[n+]1C
dose: 12.5 mg/kg/injection, schedule: Q01DX009 (ip), vehicle: Klucel (hydroxypropylcellulose) (HPC)
  survivor count: 0 of 6
dose: 25.0 mg/kg/injection, schedule: Q01DX009 (ip), vehicle: Klucel (hydroxypropylcellulose) (HPC)
  survivor count: 0 of 6
dose: 50.0 mg/kg/injection, schedule: Q01DX009 (ip), vehicle: Klucel (hydroxypropylcellulose) (HPC)
  survivor count: 0 of 6
dose: 100.0 mg/kg/injection, schedule: Q01DX009 (ip), vehicle: Klucel (hydroxypropylcellulose) (HPC)
  survivor count: 0 of 6
dose: 200.0 mg/kg/injection, schedule: Q01DX009 (ip), vehicle: Klucel (hydroxypropylcellulose) (HPC)
  survivor count: 0 of 6

## COc1ccc(/C=N/c2oc(-c3ccccc3)c(-c3ccccc3)c2-c2ccc(OC)cc2)cc1
dose: 50.0 mg/kg/injection, schedule: Q01DX005 (ip), vehicle: saline with Tween-80
  survivor count: 6 of 6
[5]
  survivor count: 6 of 6
[6]
  survivor count: 6 of 6

## Cc1ccc(N/N=c2\c3nc4ccccc4nc2n(-c2ccccc2C)c(=S)n3-c2ccc(C)cc2)cc1
dose: 240.0 mg/kg/injection, schedule: Q01DX005 (ip), vehicle: saline with Tween-80
  survivor count: 2 of 6

## O=C1c2cscc2C(=O)c2c(Cl)sc(Cl)c21
[1]
  survivor count: 6 of 6
[2]
  survivor count: 3 of 6
[3]
  survivor count: 1 of 6

## CCCCC[CH2][GeH]([CH2]CCCCC)[O][GeH]([CH2]CCCCC)[CH2]CCCCC
dose: 100.0 mg/kg/injection, schedule: Q01DX009 (ip), vehicle: saline
  survivor count: 4 of 6
dose: 200.0 mg/kg/injection, schedule: Q01DX009 (ip), vehicle: saline
  survivor count: 2 of 6
